The target of this test is desmocollin2 (human) (UniProt Q02487). The experiment in a line: affinity purification with mass spectrometry; protein of MGC-803 cells of the lenti-NC or Lenti-DSC2 group; antibodies on magnetic protein G beads, overnight at 4° C; eluate on SDS-PAGE, trypsin digest, nano LC-MS/MS, MASCOT search.

By UniProt entry, the sequences of proteins in these tests, tags left out. Residues count along the entry.
UniProt Q02487, residues 136-901: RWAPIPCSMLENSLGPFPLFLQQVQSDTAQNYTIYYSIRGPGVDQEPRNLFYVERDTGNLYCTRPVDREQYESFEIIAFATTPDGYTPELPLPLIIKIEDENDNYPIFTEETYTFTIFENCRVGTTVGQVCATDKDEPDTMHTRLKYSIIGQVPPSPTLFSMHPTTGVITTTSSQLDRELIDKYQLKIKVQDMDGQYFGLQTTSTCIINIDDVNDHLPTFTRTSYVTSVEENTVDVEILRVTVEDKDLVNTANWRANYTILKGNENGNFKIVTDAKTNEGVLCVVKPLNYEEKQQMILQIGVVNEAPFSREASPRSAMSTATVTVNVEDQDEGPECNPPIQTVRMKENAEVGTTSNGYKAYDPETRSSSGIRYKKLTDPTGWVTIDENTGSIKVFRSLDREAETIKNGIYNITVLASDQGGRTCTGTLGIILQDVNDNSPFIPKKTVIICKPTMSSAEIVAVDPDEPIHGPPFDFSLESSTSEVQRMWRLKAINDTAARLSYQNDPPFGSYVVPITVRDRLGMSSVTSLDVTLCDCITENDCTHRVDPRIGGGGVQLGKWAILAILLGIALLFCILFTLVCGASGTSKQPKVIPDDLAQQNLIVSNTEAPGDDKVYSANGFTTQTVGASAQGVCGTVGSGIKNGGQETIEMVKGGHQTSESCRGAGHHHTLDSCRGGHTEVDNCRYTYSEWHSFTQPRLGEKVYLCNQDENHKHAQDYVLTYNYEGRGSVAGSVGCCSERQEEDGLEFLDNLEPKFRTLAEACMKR

Results are given in words; binding and its absence hold for the method and conditions named. In cells and extracts the contact can be indirect. Here binding means that the protein was enriched with, or labelled near, the bait; the list need not be complete.

B1: γ-catenin (protein, UniProt P14923 1-745)
chain: MEVMNLMEQPIKVTEWQQTYTYDSGIHSGANTCVPSVSSKGIMEEDEACGRQYTLKKTTTYTQGVPPSQGDLEYQMSTTARAKRVREAMCPGVSGEDSSLLLATQVEGQATNLQRLAEPSQLLKSAIVHLINYQDDAELATRALPELTKLLNDEDPVVVTKAAMIVNQLSKKEASRRALMGSPQLVAAVVRTMQNTSDLDTARCTTSILHNLSHHREGLLAIFKSGGIPALVRMLSSPVESVLFYAITTLHNLLLYQEGAKMAVRLADGLQKMVPLLNKNNPKFLAITTDCLQLLAYGNQESKLIILANGGPQALVQIMRNYSYEKLLWTTSRVLKVLSVCPSNKPAIVEAGGMQALGKHLTSNSPRLVQNCLWTLRNLSDVATKQEGLESVLKILVNQLSVDDVNVLTCATGTLSNLTCNNSKNKTLVTQNSGVEALIHAILRAGDKDDITEPAVCALRHLTSRHPEAEMAQNSVRLNYGIPAIVKLLNQPNQWPLVKATIGLIRNLALCPANHAPLQEAAVIPRLVQLLVKAHQDAQRHVAAGTQQPYTDGVRMEEIVEGCTGALHILARDPMNRMEIFRLNTIPLFVQLLYSSVENIQRVAAGVLCELAQDKEAADAIDAEGASAPLMELLHSRNEGTATYAAAVLFRISEDKNPDYRKRVSVELTNSLFKHDPAAWEAAQSMIPINEPYGDDMDATYRPMYSSDVPLDPLEMHMDMDGDYPIDTYSDGLRPPYPTADHMLA
Regarding B1, the binding entry was “binds”.

(Values after PMC10373986.)
